# Laboratory results published in the supplement of paper PMC3334620.
# In all, about 33,000 sequences were measured (“E-score (-0.5 to 0.5)”: median about -8e-05, highest 2% from about 0.23 on). Some of the results follow.
# Molecular target: T1, Nrg2 (UniProt P38082)
# T1 sequence: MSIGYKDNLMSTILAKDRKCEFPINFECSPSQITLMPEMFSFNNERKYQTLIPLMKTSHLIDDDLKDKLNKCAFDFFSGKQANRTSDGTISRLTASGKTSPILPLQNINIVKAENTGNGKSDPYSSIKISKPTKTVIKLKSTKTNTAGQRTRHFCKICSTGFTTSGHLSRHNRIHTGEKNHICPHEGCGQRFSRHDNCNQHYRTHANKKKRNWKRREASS
# Test: PBM E-score (8-mer binding enrichment) (E-score (-0.5 to 0.5)); higher = stronger / more preferred TF binding
# Conditions: protein concentration: 100 nM; construct: GST-full length
# Procedure, shortened: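 Yeast transcription factors, full-length or as DNA-binding domains, were expressed with a GST tag using PURExpress in vitro transcription/translation. At about 100-200 nM they were applied to universal all-10-mer Agilent arrays, double-stranded by primer extension on fresh or once-stripped slides. Fluorescent anti-GST detected bound protein, and masliner normalised the scans. E-scores for ungapped eight-base words, pooled with reverse complements, came from the Universal PBM Analysis Suite.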
row,Sequence,PBM E-score
1,GACCGAAA,0.0884
2,ATAGCTAC,-0.0453
3,ACGACGCT,-0.161
4,GCTCGAGA,-0.131
5,CCCGTTAA,-0.00327
6,ACAATAAA,0.136
7,AACATTGG,-0.192
8,AGGTGTTA,-0.101
9,ACTGTCAC,-0.067
10,CAGGGTTA,0.0393
11,AGACATCA,-0.0341
12,CGACGTCC,0.0832
13,GGCCATGA,0.109
14,GTTGTACA,0.147
15,GCTTATGA,-0.0632
16,GCCGTTGA,0.0631
17,AGATCTCA,0.0774
18,GCTCGATA,0.133
19,CGGGGTCC,0.145
20,GAGAACGA,0.143
21,AAGGGTCG,0.132
22,GGCTGTAA,-0.0744
23,AGGCATTA,-0.091
24,CATCGACG,0.0941
25,CGCATCCA,-0.00975

row,Sequence,PBM E-score
1,GTAGTGAC,-0.00931
2,TCTCTGCA,-0.121
3,AAGTTGTA,0.154
4,CGGGGATA,-0.0457
5,CCACATCG,-0.128
6,ATAATTTG,0.182
7,ACGCCACC,-0.148
8,CGATTATC,-0.0579
9,AAACAACA,-0.00449
10,TCTGAAGA,-0.0939
11,CTTTTAAA,-0.168
12,ATTACCTG,-0.00837
13,CCGCAGCA,0.012
14,AAGGCCGT,-0.107
15,ACCGCATG,-0.0341
16,AGGCGCCG,-0.0298
17,AGTGTTAC,0.0833
18,ACGCTTGA,0.0675
19,GTAGTATA,0.181
20,AAATGGCA,0.0923
21,AAGGCTTA,-0.202
22,CATGCTCG,-0.0652
23,ATGGGACG,-0.0206
24,CAAAGGGC,0.00955
25,ATGTTAAT,-0.0856

row,Sequence,PBM E-score
1,GAGGGACA,0.0412
2,AGATTAAA,0.208
3,CCATTGAC,-0.179
4,CCAGCCGC,-0.0131
5,ATTCTAAA,0.0362
6,AGAGTACG,0.0104
7,TCCGTTCA,-0.0761
8,AGGCTCGC,-0.0786
9,AACGTAAT,0.163
10,CGAAGGAA,-0.114
11,ATAAGGGA,0.0808
12,ATCGGAGC,-0.0585
13,CCCGATGC,-0.0449
14,GCCCTGGA,0.247
15,ACACAAAC,-0.0669
16,ACACCAGT,-0.17
17,AGAACCCA,-0.0364
18,CATAGGAA,-0.131
19,TATTTGGA,-0.115
20,GGCTATGA,-0.161
21,GAGGACCA,-0.0882
22,CCACGAGA,0.00103
23,AGTCCTCC,-0.277
24,CCCAGACA,-0.081
25,GCACTGAC,-0.04

# Look-ups from the results shown:
# Entry for AGGCTCGC under PBM E-score: -0.0786
# Entry for ATCGGAGC under PBM E-score: -0.0585
# Entry for GCACTGAC under PBM E-score: -0.04
# Entry for AGTCCTCC under PBM E-score: -0.277
# Entry for TATTTGGA under PBM E-score: -0.115

# (listing goes on)

row,Sequence,PBM E-score
1,CGCGCAAC,0.113
2,ATGGACCA,-0.0515
3,GTGTGTTA,0.19
4,ATCCGTGC,0.039
5,CGGCGGAA,0.141
6,AATCTAAT,-0.0552
7,CTAGAGTA,-0.0664
8,AATTCGTC,0.201
9,CTCCCTCA,-0.106
10,AACCCTTC,0.168
11,ATCAATAG,0.0823
12,ATAGGACA,-0.118
13,CCACGTTA,0.0534
14,AAATGGGG,-0.0617
15,ACTATCCA,0.0385
16,CACCGTGC,0.128
17,CCCGGACC,-0.162
18,CCGCGGAA,0.189
19,AGCACCAC,-0.242
20,CATAAAGA,0.0609
21,CTACGAAA,-0.109
22,AATACCGT,0.099
23,CTCTGACA,0.123
24,TCAGTACA,0.102
25,GCCGTGCC,-0.147

row,Sequence,PBM E-score
1,AACTGCAA,-0.00575
2,ATGTTCCC,-0.0414
3,ATTCCAGC,-0.0562
4,ACGTATAA,-0.0193
5,ACCCCTAG,0.153
6,CCCCGTCA,-0.0623
7,GAATTTGC,0.172
8,GGTGAGAC,-0.216
9,CGGATGCA,-0.198
10,AGTCTTCC,-0.184
11,AGGAAAGC,-0.172
12,ACTAAAGT,-0.0406
13,CGACAATC,0.009
14,CTTGAAGC,-0.0505
15,GAACTCAC,-0.00682
16,ATAGGCGC,0.0186
17,ACTGACCC,-0.133
18,CGGGTCTA,-0.0249
19,AGTAGTGG,0.175
20,AATTAGAA,0.0674
21,ACATGTCA,-0.0279
22,AGGCGGGC,-0.121
23,ACCCGTAC,0.0835
24,ATAAAGGC,-0.208
25,AGAACTCA,0.0527

row,Sequence,PBM E-score
1,AGTGATCA,0.063
2,AGACGTAT,-0.137
3,CCAAACCA,-0.0594
4,GGCGCACC,-0.107
5,AACTGCAG,-0.0636
6,GTTATTAA,0.182
7,ATGTCAAA,0.0408
8,AAACACTT,0.122
9,GACACTTA,-0.0717
10,GCTGCAGA,0.139
11,AACGCGAG,0.092
12,TAGGATCA,0.0925
13,ACACGCAA,0.122
14,GCAACCCA,-0.0957
15,GCCCCGGA,-0.0937
16,AGTTTGAT,0.129
17,CAAAGTGA,0.0979
18,CAACCCCA,0.206
19,CAGACACC,-0.0427
20,CGAAGGGA,0.144
21,CGGTCTCC,-0.0422
22,ACGATACG,-0.0773
23,GGCAACGA,0.148
24,GAATCGGA,0.202
25,CTAGTCCA,-0.123

row,Sequence,PBM E-score
1,CCCGACCG,-0.0769
2,GATAGAGC,0.0906
3,TGCCAAAA,0.136
4,ACTTTACG,-0.0231
5,AAAGTTCA,-0.06
6,GTATTAAC,-0.0959
7,CGTGGGAA,-0.179
8,ACAGCTAG,0.0222
9,ATCCACTG,0.045
10,TAGCGGAA,-0.0638
11,ATATGGAT,0.247
12,ACCTTGCT,-0.0256
13,CGGCACGC,-0.261
14,GGGGATCA,-0.142
15,AAAGTCCC,-0.055
16,ACTTCGGG,0.0979
17,CTGTCTTC,-0.00142
18,CAAAGCAC,-0.0605
19,CCAATTGC,-0.0326
20,GGGCTTGA,-0.2
21,ACACAGGG,0.238
22,CATGGCAA,0.0789

# 2 entries picked at random from the list so far, as already listed:
row,Sequence,PBM E-score
17,CTGTCTTC,-0.00142
18,CAAAGCAC,-0.0605
